In patent US20180193409A1 (POLYMERS CRC LIMITED, priority 2015, published 2018):

Assay: peptide made by a vendor (peptide synthesis; RinkAmide ChemMatrix resin; TBTU/HOBt/DIEA)
Details: whole synthesis, RP-HPLC

AcACAAALRQWLAAACA
final HPLC purity: >95%

AcACAIEGPTLRQWLAARAACA
final HPLC purity: >95%
